Paper PMC1334198
Results are given in words; binding and its absence hold for the method and conditions named. Binding seen in cells or lysates may run through a third protein. Some binding calls cover weakened binding; strength is not graded here.

Chains of the proteins cited; added tags and fusions are not shown. Residues count along the entry.
UniProt P98171, residues 746-805: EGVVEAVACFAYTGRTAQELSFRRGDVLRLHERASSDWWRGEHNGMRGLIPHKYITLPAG

Target: GST-tagged RhoGAP4 SH3 (human) (UniProt P98171)
Assay: pull-down; GST-tagged RhoGAP4 domain incubated with HL-60 lysate, eluted with glutathione, blotted for Hem-1; only the target purified

B1: hematopoietic protein 1 (Hem-1) (protein, UniProt P55160 1-1127)
chain: MSLTSAYQHKLAEKLTILNDRGQGVLIRMYNIKKTCSDPKSKPPFLLEKSMEPSLKYINKKFPNIDVRNSTQHLGPVHREKAEIIRFLTNYYQSFVDVMEFRDHVYELLNTIDACQCHFDINLNFDFTRSYLDLIVTYTSVILLLSRIEDRRILIGMYNCAHEMLHGHGDPSFARLGQMVLEYDHPLKKLTEEFGPHTKAVSGALLSLHFLFVRRNQGAEQWRSAQLLSLISNPPAMINPANSDTMACEYLSVEVMERWIIIGFLLCHGCLNSNSQCQKLWKLCLQGSLYITLIREDVLQVHKVTEDLFSSLKGYGKRVADIKESKEHVIANSGQFHCQRRQFLRMAVKELETVLADEPGLLGPKALFAFMALSFIRDEVTWLVRHTENVTKTKTPEDYADSSIAELLFLLEGIRSLVRRHIKVIQQYHLQYLARFDALVLSDIIQNLSVCPEEESIIMSSFVSILSSLNLKQVDNGEKFEFSGLRLDWFRLQAYTSVAKAPLHLHENPDLAKVMNLIVFHSRMLDSVEKLLVETSDLSTFCFHLRIFEKMFAMTLEESAMLRYAIAFPLICAHFVHCTHEMCPEEYPHLKNHGLHHCNSFLEELAKQTSNCVLEICAEQRNLSEQLLPKHCATTISKAKNKKTRKQRQTPRKGEPERDKPGAESHRKNRSIVTNMDKLHLNLTELALTMNHVYSFSVFEHTIFPSEYLSSHLEARLNRAIVWLAGYNATTQEIVRPSELLAGVKAYIGFIQSLAQFLGADASRVIRNALLQQTQPLDSCGEQTITTLYTNWYLESLLRQASSGTIILSPAMQAFVSLPREGEQNFSAEEFSDISEMRALAELLGPYGMKFLSENLMWHVTSQIVELKKLVVENMDILVQIRSNFSKPDLMASLLPQLTGAENVLKRMTIIGVILSFRAMAQEGLREVFSSHCPFLMGPIECLKEFVTPDTDIKVTLSIFELASAAGVGCDIDPALVAAIANLKADTSSPEEEYKVACLLLIFLAVSLPLLATDPSSFYSIEKDGYNNNIHCLTKAIIQVSAALFTLYNKNIETHLKEFLVVASVSLLQLGQETDKLKTRNRESISLLMRLVVEESSFLTLDMLESCFPYVLLRNAYREVSRAFHLN
  binding: binds
